Reference: PubChem BioAssay AID328 (DTP/NCI, 2004)
The list shows only some results of the screen, not a fair sample: it is rich in T/C values a quarter to a half above the control, in often repeated tests (any T/C) and in doses without a T/C. Further doses and runs are listed elsewhere. T/C: endpoint of the treated group in % of that of the vehicle group. Some doses have a count of surviving animals in place of a T/C: the source files T/C as zero there, which appears to mark a toxic dose or a test without result, not a measured value. Some survivor counts are full or nearly so, which does not show that the dose was tolerated: survival well below the control is almost never listed, so the zero probably covers shortened survival too. Survivors were counted at the toxicity check, usually on the fifth day, unless a day is given; later deaths do not show. Schedule codes are those of the source, read here as Q, the interval in days (D) or hours (H), X, the number of doses. Where survival is the endpoint, this PubChem deposit counts one and a half times the control or more as active, and values a quarter to a half above the control carry no call in these data; other NCI protocols may use other cut-offs. Some entries were tested several times; their values stand side by side, smallest first. Counts like (3×) count equal records among those shown. Some T/C values are followed by the survivors on the day toxicity was checked, most often the fifth; where none is given, no animal had died by that day.

Tested on: BDF1 mice, P388 leukemia ip, median survival T/C
Assay: NCI In Vivo Anticancer Drug Screen. Data for tumor model P388 Leukemia (intraperitoneal) in B6D2F1 (BDF1) mice
Details: T/C endpoint: median survival time, higher T/C = longer survival
How it was run: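 Transplantable tumour in mice; compound vs vehicle dosing; survival scored; ratio of treated to control reported.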

## COc1cccc2c1C(=O)c1c(O)c3c(c(O)c1C2=O)C[C@@](O)(C(=O)CO)C[C@@H]3OC1CC(N)C(O)C(C)O1 (stereo partly specified)
dose: 0.2 mg/kg/injection, schedule: Q01DX009 (ip), vehicle: water
  T/C: 148 % of control
dose: 0.25 mg/kg/injection, schedule: Q01DX009 (ip), vehicle: water, evaluated on day 28
  T/C: 170 % of control
dose: 0.25 mg/kg/injection, schedule: Q01DX009 (ip), vehicle: water, evaluated on day 30
  T/C: 149 % of control
dose: 0.25 mg/kg/injection, schedule: Q01DX009 (ip), vehicle: water, evaluated on day 32
  T/C: 131 and 159 % of control
dose: 0.25 mg/kg/injection, schedule: Q01DX009 (ip), vehicle: water, evaluated on day 33
  T/C: 125 % of control
dose: 0.39 mg/kg/injection, schedule: Q01DX009 (ip), vehicle: saline
  T/C: 142 % of control
dose: 0.44 mg/kg/injection, schedule: Q03HX024 (ip), vehicle: saline, evaluated on day 5
  T/C: 134, 155, 277, 500 % of control
dose: 0.44 mg/kg/injection, schedule: Q03HX024 (ip), vehicle: saline, evaluated on day 60
  T/C: 134, 155, 277, 500 % of control
dose: 0.5 mg/kg/injection, schedule: Q01DX001 (ip), vehicle: saline
  T/C: 138 % of control
dose: 0.5 mg/kg/injection, schedule: Q01DX009 (ip), vehicle: water, evaluated on day 28
  T/C: 166 % of control
dose: 0.5 mg/kg/injection, schedule: Q01DX009 (ip), vehicle: water, evaluated on day 30
  T/C: 172 % of control
dose: 0.5 mg/kg/injection, schedule: Q01DX009 (ip), vehicle: water, evaluated on day 32
  T/C: 134 and 194 % of control
dose: 0.5 mg/kg/injection, schedule: Q01DX009 (ip), vehicle: water, evaluated on day 33
  T/C: 126 % of control
dose: 0.5 mg/kg/injection, schedule: Q01DX009 (ip), vehicle: water, evaluated on day 41
  T/C: 226 % of control
dose: 0.5 mg/kg/injection, schedule: Q04DX003 (ip), vehicle: water, evaluated on day 30
  T/C: 157 % of control
dose: 0.5 mg/kg/injection, schedule: Q04DX003 (ip), vehicle: water, evaluated on day 32
  T/C: 137 % of control
dose: 0.5 mg/kg/injection, schedule: Q04DX003 (ip), vehicle: water, evaluated on day 34
  T/C: 166 % of control
dose: 0.5 mg/kg/injection, schedule: Q04DX003 (ip), vehicle: water, evaluated on day 38
  T/C: 190 % of control
dose: 0.5 mg/kg/injection, schedule: Q04DX003 (ip), vehicle: water, evaluated on day 46
  T/C: 153 % of control
dose: 0.67 mg/kg/injection, schedule: Q03HX024 (ip), vehicle: saline, evaluated on day 5
  T/C: 141, 187, 365, 539 % of control
dose: 0.67 mg/kg/injection, schedule: Q03HX024 (ip), vehicle: saline, evaluated on day 60
  T/C: 141, 187, 365, 539 % of control
dose: 1.0 mg/kg/injection, schedule: Q01DX009 (ip), vehicle: water, evaluated on day 28
  T/C: 154 % of control
dose: 1.0 mg/kg/injection, schedule: Q01DX009 (ip), vehicle: water, evaluated on day 30
  T/C: 201 % of control
dose: 1.0 mg/kg/injection, schedule: Q01DX009 (ip), vehicle: water, evaluated on day 32
  T/C: 157 and 215 % of control
dose: 1.0 mg/kg/injection, schedule: Q01DX009 (ip), vehicle: water, evaluated on day 33
  T/C: 155 % of control [5 of 6 alive]
dose: 1.0 mg/kg/injection, schedule: Q01DX009 (ip), vehicle: water, evaluated on day 41
  T/C: 245 % of control
dose: 1.0 mg/kg/injection, schedule: Q01DX009 (sc), vehicle: saline
  T/C: 130 % of control
dose: 1.0 mg/kg/injection, schedule: Q03HX024 (ip), vehicle: saline, evaluated on day 5
  T/C: 115, 162, 207 % of control
dose: 1.0 mg/kg/injection, schedule: Q03HX024 (ip), vehicle: saline, evaluated on day 60
  T/C: 115, 162, 207, 230 % of control
dose: 1.0 mg/kg/injection, schedule: Q03HX024 (sc), vehicle: saline
  T/C: 130 % of control
dose: 1.0 mg/kg/injection, schedule: Q04DX003 (ip), vehicle: water, evaluated on day 30
  T/C: 108 [5 of 6 alive], 113 (2×), 116, 124, 132, 133, 166 % of control
dose: 1.0 mg/kg/injection, schedule: Q04DX003 (ip), vehicle: water, evaluated on day 32
  T/C: 147 % of control
dose: 1.0 mg/kg/injection, schedule: Q04DX003 (ip), vehicle: water, evaluated on day 34
  T/C: 210 % of control
dose: 1.0 mg/kg/injection, schedule: Q04DX003 (ip), vehicle: water, evaluated on day 38
  T/C: 213 % of control
dose: 1.0 mg/kg/injection, schedule: Q04DX003 (ip), vehicle: water, evaluated on day 41
  T/C: 235 % of control
dose: 1.0 mg/kg/injection, schedule: Q04DX003 (ip), vehicle: water, evaluated on day 46
  T/C: 166 % of control
dose: 1.44 mg/kg/injection, schedule: Q04DX003 (ip), vehicle: water
  T/C: 151, 165, 177, 181, 190, 212, 213, 245 % of control
dose: 1.5 mg/kg/injection, schedule: Q01DX009 (sc), vehicle: saline
  T/C: 135 % of control
dose: 1.5 mg/kg/injection, schedule: Q03HX016 (ip), vehicle: saline
  survivor count: 10 of 10
dose: 1.56 mg/kg/injection, schedule: Q01DX009 (ip), vehicle: water
  survivor count: 3 of 3
dose: 1.73 mg/kg/injection, schedule: Q04DX003 (ip), vehicle: saline
  T/C: 200, 203, 212, 213 (2×), 215, 220, 229, 242 % of control
dose: 1.8 mg/kg/injection, schedule: Q04DX003 (ip), vehicle: water, evaluated on day 7
  T/C: 146 and 155 % of control
dose: 1.8 mg/kg/injection, schedule: Q04DX003 (ip), vehicle: water, evaluated on day 62
  T/C: 146 and 155 % of control
dose: 2.0 mg/kg/injection, schedule: Q01DX001 (ip), vehicle: saline, evaluated on day 5
  T/C: 170, 188, 191 % of control
dose: 2.0 mg/kg/injection, schedule: Q01DX001 (ip), vehicle: saline, evaluated on day 8
  T/C: 161 % of control
dose: 2.0 mg/kg/injection, schedule: Q01DX001 (ip), vehicle: saline, evaluated on day 11
  T/C: 100 % of control
dose: 2.0 mg/kg/injection, schedule: Q01DX001 (ip), vehicle: saline, evaluated on day 90
  T/C: 188 % of control
dose: 2.0 mg/kg/injection, schedule: Q01DX009 (ip), vehicle: water, evaluated on day 28
  T/C: 220 % of control
dose: 2.0 mg/kg/injection, schedule: Q01DX009 (ip), vehicle: water, evaluated on day 30
  T/C: 117 % of control
dose: 2.0 mg/kg/injection, schedule: Q01DX009 (ip), vehicle: water, evaluated on day 32
  T/C: 178 and 284 % of control
dose: 2.0 mg/kg/injection, schedule: Q01DX009 (ip), vehicle: water, evaluated on day 33
  T/C: 196 % of control
